Positions count from the first letter of the chain named. Results are given in words; binding and its absence hold for the method and conditions named. In cells and extracts the contact can be indirect. These calls come from enrichment with a bait or labelling near it, and not all partners need be listed. Sequences can lack the tags named with a protein.
T1: F-box and leucine-rich repeat protein 16 (Flag-FBXL16) (human) (UniProt Q8N461)
T1 sequence: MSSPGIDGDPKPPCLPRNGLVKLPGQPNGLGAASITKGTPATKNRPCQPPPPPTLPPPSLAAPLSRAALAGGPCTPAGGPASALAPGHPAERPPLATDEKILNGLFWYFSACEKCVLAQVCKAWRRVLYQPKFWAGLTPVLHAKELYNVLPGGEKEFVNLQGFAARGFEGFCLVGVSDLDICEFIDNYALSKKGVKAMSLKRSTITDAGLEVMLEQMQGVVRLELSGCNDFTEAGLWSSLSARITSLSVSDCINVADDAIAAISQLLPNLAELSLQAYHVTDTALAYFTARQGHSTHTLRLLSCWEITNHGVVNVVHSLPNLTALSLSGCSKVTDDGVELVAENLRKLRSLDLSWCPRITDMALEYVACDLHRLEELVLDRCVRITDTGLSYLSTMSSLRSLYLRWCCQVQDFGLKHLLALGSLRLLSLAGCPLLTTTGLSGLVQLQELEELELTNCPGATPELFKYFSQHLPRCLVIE

Chains of the proteins cited; added tags and fusions are not shown. Lines headed by an entry give the natural chain unless they say otherwise; changes in a name come on top. Residues count along the entry.
UniProt A8MUK1: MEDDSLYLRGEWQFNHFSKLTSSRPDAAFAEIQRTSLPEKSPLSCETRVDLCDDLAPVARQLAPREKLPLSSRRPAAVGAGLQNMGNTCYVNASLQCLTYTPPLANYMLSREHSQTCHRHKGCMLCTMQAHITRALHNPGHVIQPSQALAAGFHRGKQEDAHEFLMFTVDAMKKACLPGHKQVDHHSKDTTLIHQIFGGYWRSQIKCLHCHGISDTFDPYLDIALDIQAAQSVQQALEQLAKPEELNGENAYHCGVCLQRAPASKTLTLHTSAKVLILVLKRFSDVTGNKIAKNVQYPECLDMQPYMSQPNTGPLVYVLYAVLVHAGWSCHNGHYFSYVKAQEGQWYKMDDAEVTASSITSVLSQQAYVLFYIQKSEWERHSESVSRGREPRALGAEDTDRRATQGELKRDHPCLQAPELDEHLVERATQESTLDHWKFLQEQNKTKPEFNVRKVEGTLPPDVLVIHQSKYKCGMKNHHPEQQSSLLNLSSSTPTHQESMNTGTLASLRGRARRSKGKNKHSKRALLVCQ
UniProt Q0WX57: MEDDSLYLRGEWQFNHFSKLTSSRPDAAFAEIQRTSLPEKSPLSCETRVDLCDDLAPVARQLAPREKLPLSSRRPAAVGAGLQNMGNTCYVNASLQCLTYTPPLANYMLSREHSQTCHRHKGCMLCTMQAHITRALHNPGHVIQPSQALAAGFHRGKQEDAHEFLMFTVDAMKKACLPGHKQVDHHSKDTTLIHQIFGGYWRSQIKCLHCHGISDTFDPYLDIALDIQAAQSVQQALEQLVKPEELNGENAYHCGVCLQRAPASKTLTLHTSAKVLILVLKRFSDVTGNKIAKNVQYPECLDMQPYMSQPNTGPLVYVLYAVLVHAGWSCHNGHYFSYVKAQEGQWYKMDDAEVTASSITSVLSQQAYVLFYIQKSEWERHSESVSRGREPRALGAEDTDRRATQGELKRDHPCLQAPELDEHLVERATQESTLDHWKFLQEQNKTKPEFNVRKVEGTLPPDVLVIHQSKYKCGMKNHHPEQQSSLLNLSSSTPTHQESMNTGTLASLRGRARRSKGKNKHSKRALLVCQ
UniProt P07339: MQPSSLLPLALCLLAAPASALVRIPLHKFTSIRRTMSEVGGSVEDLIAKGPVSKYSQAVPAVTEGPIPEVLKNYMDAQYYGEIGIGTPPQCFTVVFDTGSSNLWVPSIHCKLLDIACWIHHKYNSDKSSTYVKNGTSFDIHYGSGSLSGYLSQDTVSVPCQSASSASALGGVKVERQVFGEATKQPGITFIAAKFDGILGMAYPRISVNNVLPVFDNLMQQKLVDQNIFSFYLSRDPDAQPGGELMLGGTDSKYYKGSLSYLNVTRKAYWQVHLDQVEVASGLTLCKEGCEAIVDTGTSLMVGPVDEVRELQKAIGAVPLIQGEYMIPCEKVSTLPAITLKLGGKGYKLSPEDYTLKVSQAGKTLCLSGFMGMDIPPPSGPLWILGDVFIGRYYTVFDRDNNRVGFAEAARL
UniProt P08670: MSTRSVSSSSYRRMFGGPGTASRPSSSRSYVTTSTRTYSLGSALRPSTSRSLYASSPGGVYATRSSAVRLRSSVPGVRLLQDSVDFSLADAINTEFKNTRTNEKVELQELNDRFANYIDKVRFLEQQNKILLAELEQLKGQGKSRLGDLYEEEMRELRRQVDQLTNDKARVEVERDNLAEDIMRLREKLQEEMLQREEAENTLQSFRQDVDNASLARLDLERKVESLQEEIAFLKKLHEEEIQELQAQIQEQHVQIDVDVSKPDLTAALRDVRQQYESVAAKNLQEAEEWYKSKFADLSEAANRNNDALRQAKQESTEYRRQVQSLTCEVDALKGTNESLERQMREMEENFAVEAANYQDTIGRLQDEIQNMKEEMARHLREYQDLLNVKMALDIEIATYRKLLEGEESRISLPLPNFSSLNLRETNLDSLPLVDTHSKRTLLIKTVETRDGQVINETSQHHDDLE
UniProt P11021, residues 19-654: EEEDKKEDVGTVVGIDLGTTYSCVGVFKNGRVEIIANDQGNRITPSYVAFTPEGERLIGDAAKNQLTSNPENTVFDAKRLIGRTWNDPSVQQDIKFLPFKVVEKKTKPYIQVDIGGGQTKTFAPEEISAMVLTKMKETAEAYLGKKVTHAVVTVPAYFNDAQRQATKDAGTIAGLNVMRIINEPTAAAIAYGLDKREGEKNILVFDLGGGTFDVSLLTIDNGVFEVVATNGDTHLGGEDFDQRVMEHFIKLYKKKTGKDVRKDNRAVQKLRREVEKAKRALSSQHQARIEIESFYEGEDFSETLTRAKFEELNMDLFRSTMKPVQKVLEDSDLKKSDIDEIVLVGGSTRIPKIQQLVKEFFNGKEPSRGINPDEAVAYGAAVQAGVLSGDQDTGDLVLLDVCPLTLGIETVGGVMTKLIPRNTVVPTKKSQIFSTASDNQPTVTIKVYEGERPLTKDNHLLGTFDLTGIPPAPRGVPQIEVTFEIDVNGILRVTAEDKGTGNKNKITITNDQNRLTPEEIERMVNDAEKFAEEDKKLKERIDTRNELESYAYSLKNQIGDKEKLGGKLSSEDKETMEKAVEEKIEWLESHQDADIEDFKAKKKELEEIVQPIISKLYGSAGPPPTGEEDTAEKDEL
UniProt P55036: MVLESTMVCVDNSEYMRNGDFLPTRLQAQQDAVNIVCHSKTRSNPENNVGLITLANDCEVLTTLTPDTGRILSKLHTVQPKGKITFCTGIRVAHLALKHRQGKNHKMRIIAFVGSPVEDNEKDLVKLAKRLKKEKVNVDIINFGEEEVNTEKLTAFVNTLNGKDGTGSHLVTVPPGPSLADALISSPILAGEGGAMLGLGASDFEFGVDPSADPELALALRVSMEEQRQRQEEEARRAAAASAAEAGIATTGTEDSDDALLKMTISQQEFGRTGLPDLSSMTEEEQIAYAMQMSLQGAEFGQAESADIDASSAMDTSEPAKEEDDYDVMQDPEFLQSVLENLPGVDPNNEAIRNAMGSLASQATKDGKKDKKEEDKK
UniProt P02788, residues 20-710: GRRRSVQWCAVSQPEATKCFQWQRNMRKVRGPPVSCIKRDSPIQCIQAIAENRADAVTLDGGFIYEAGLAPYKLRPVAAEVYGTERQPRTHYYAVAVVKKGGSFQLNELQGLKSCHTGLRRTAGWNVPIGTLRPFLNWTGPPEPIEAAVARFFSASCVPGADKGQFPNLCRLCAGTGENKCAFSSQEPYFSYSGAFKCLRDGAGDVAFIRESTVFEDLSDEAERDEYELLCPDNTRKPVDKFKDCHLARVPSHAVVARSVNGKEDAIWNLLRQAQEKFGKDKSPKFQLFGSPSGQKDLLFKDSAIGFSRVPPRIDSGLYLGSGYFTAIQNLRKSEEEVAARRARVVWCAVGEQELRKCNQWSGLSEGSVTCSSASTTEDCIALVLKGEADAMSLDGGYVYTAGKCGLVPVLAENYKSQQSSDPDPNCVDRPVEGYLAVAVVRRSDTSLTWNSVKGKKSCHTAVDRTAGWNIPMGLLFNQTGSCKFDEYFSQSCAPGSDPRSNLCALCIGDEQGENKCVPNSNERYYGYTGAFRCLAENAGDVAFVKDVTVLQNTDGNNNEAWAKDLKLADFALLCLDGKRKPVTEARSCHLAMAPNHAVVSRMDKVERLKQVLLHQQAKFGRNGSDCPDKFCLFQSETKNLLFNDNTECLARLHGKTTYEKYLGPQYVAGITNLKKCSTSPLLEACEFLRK

B1: PRDX1 (protein, UniProt Q06830 1-199)
chain: MSSGNAKIGHPAPNFKATAVMPDGQFKDISLSDYKGKYVVFFFYPLDFTFVCPTEIIAFSDRAEEFKKLNCQVIGASVDSHFCHLAWVNTPKKQGGLGPMNIPLVSDPKRTIAQDYGVLKADEGISFRGLFIIDDKGILRQITVNDLPVGRSVDETLRLVQAFQFTDKHGEVCPAGWKPGSDTIKPDVQKSKEYFSKQK
B2: USP17L15 (protein, UniProt C9J2P7 1-553)
chain: MEDDSLYLGGEWQFNHFSKLTSSRPDAAFAEIQRTSLPEKSPLSCETRVDLCDDLAPVARQLAPREKLPLSSRRPAAVGAGLQNMGNTCYVNASLQCLTYTPPLANYMLSREHSQTCHRHKGCMLCTMQAHITRALHNPGHVIQPSQALAAGFHRGKQEDAHEFLMFTVDAMKKACLPGHKQVDHHSKDTTLIHQIFGGYWRSQIKCLHCHGISDTFDPYLDIALDIQAAQSVQQALEQLVKPEELNGENAYHCGVCLQRAPASKTLTLHTSAKVLILVLKRFSDVTGNKIDKNVQYPECLDMKLYMSQTNSGPLVYVLYAVLVHAGWSCHNGHYFSYVKAQEGQWYKMDDAEVTASSITSVLSQQAYVLFYIQKSEWERHSESVSRGREPRALGAEDTDRRATQGELKRDHPCLQAPELDEHLVERATQESTLDHWKFLQEQNKTKPEFNVRKVEGTLPPDVLVIHQSKYKCGMKNHHPEQQSSLLNLSSTTPTHQESMNTGTLASLRGRARRSKGKNKHSKRALLVCQWSQWKYRPTRRGAHTHAHTQTHT
B3: TXN (protein, UniProt P10599 1-105)
chain: MVKQIESKTAFQEALDAAGDKLVVVDFSATWCGPCKMIKPFFHSLSEKYSNVIFLEVDVDDCQDVASECEVKCMPTFQFFKKGQKVGEFSGANKEKLEATINELV
B4: USP17L3 (protein, UniProt A6NCW0 1-530)
chain: MGDDSLYLGGEWQFNHFSKLTSSRPDAAFAEIQRTSLPEKSPLSSETRVDLCDDLAPVARQLAPREKLPLSSRRPAAVGAGLQNMGNTCYENASLQCLTYTLPLANYMLSREHSQTCQRPKCCMLCTMQAHITWALHSPGHVIQPSQALASGFHRGKQEDVHEFLMFTVDAMKKACLPGHKQVDHHSKDTTLIHQIFGGCWRSQIKCLHCHGISDTFDPYLDIALDIQAAQSVKQALEQLVKPEELNGENAYHCGLCLQRAPASNTLTLHTSAKVLILVLKRFSDVAGNKLAKNVQYPECLDMQPYMSQQNTGPLVYVLYAVLVHAGWSCHDGHYFSYVKAQEGQWYKMDDAEVTVCSITSVLSQQAYVLFYIQKSEWERHSESVSRGREPRALGAEDTDRRAKQGELKRDHPCLQAPELDEHLVERATQESTLDHWKFLQEQNKTKPEFNVGKVEGTLPPNALVIHQSKYKCGMKNHHPEQQSSLLNLSSTTRTDQESMNTGTLASLQGRTRRAKGKNKHSKRALLVCQ
B5: USP17L1 (protein, UniProt Q7RTZ2 1-530)
chain: B4 chain with S151A, S187C, G344V, T360I
B6: PRDX2 (protein, UniProt P32119 1-198)
chain: MASGNARIGKPAPDFKATAVVDGAFKEVKLSDYKGKYVVLFFYPLDFTFVCPTEIIAFSNRAEDFRKLGCEVLGVSVDSQFTHLAWINTPRKEGGLGPLNIPLLADVTRRLSEDYGVLKTDEGIAYRGLFIIDGKGVLRQITVNDLPVGRSVDEALRLVQAFQYTDEHGEVCPAGWKPGSDTIKPNVDDSKEYFSKHN
B7: USP17L2 (protein, UniProt Q6R6M4 1-530)
chain: MEDDSLYLGGEWQFNHFSKLTSSRPDAAFAEIQRTSLPEKSPLSSEARVDLCDDLAPVARQLAPRKKLPLSSRRPAAVGAGLQNMGNTCYENASLQCLTYTPPLANYMLSREHSQTCQRPKCCMLCTMQAHITWALHSPGHVIQPSQALAAGFHRGKQEDAHEFLMFTVDAMKKACLPGHKQVDHHSKDTTLIHQIFGGCWRSQIKCLHCHGISDTFDPYLDIALDIQAAQSVKQALEQLVKPEELNGENAYHCGLCLQRAPASKTLTLHTSAKVLILVLKRFSDVTGNKLAKNVQYPECLDMQPYMSQQNTGPLVYVLYAVLVHAGWSCHDGHYFSYVKAQEGQWYKMDDAKVTACSITSVLSQQAYVLFYIQKSEWERHSESVSRGREPRALGAEDTDRRATQGELKRDHPCLQAPELDERLVERATQESTLDHWKFPQEQNKTKPEFNVRKVEGTLPPNVLVIHQSKYKCGMKNHHPEQQSSLLNLSSTTRTDQESVNTGTLASLQGRTRRSKGKNKHSKRALLVCQ
B8: USP17L18 (protein, UniProt D6R9N7 1-530)
chain: MEDDSLYLGGEWQFNHFSKLTSSRPDAAFAEIQRTSLPEKSPLSCETRVDLCDDLAPVARQLAPREKLPLSSRRPAAVGAGLQNMGNTCYVNASLQCLTYTPPLANYMLSREHSQTCHRHKGCMLCTMQAHITRALHNPGHVIQPSQALAAGFHRGKQEDAHEFLMFTVDAMKKACLPGHKQVDHHSKDTTLIHQIFGGYWRSQIKCLHCHGISDTFDPYLDIALDIQAAQSVQQALEQLVKPEELNGENAYHCGVCLQRAPASKTLTLHTSAKVLILVLKRFSDVTGNKIAKNVQYPECLDMQPYMSQTNTGPLVYVLYAVLVHAGWSCHNGHYFSYVKAQEGQWYKMDDAEVTASSITSVLSQQAYVLFYIQKSEWERHSESVSRGREPRALGAEDTDRRAKQGELKRDHPCLQAPELDEHLVERATQESTLDHWKFLQEQNKTKPEFNVRKVEGTLPPDVLVIHQSKYKCGMKNHHPEQQSSLLNLSSTTPTHQESMNTGTLASLRGRARRSKGKNKHSKRALLVCQ
B9: USP17L5 (protein, UniProt A8MUK1 1-530)
chain: B8 chain with G9R, V241A, T310P, K404T, T492S
B10: USP17L20 (protein, UniProt D6RJB6 1-530)
chain: B8 chain with T310P, K404T
B11: USP17L19 (protein, UniProt D6RCP7 1-530)
chain: B8 chain with D3E, K404T, N488K
B12: USP17L24 (protein, UniProt Q0WX57 1-530)
chain: B8 chain with G9R, T310P, K404T, T492S
B13: USP17L12 (protein, UniProt C9JPN9 1-530)
chain: B8 chain with D3E, S72N, T266M, H270L, T310P, K404T, N488K
B14: USP17L11 (protein, UniProt C9JVI0 1-530)
chain: B8 chain with K404T

biological target: T1, F-box and leucine-rich repeat protein 16 (Flag-FBXL16) (human); assay: affinity purification with mass spectrometry; 0 to 2 µg Flag-FBXL16 plasmid transfected into HEK293 cells; precipitated with Flag magnetic beads, eluted with glycine (0.1 M, pH 2.8), neutralised with 0.5 M Tris-HCl; trypsin digestion and mass spectrometry

binding, binds:
CTSD (from UniProt P07339)
VIM (from UniProt P08670 1-466)
HSPA5 (from UniProt P11021 19-654)
PSMD4 (from UniProt P55036 1-377)
LTF (from UniProt P02788 20-710)
B1
B2
B3
B4
B5
B6
B7
B8
B9
B10
B11
B12
B13
B14

Source: PMC11580471
